From patent US20260166140A1, “Combinations Involving Epidermal Growth Factor Receptor Tyrosine Kinase Inhibitors For the Treatment of Cancer” (AstraZeneca AB, priority 2022, published 2026)
No constants are given. Whether binding was seen depends on the method and setting. Some binding calls cover weakened binding; strength is not graded here.

Chains of the proteins cited; added tags and fusions are not shown. Lines headed by an entry give the natural chain unless they say otherwise; changes in a name come on top.
UniProt P08581: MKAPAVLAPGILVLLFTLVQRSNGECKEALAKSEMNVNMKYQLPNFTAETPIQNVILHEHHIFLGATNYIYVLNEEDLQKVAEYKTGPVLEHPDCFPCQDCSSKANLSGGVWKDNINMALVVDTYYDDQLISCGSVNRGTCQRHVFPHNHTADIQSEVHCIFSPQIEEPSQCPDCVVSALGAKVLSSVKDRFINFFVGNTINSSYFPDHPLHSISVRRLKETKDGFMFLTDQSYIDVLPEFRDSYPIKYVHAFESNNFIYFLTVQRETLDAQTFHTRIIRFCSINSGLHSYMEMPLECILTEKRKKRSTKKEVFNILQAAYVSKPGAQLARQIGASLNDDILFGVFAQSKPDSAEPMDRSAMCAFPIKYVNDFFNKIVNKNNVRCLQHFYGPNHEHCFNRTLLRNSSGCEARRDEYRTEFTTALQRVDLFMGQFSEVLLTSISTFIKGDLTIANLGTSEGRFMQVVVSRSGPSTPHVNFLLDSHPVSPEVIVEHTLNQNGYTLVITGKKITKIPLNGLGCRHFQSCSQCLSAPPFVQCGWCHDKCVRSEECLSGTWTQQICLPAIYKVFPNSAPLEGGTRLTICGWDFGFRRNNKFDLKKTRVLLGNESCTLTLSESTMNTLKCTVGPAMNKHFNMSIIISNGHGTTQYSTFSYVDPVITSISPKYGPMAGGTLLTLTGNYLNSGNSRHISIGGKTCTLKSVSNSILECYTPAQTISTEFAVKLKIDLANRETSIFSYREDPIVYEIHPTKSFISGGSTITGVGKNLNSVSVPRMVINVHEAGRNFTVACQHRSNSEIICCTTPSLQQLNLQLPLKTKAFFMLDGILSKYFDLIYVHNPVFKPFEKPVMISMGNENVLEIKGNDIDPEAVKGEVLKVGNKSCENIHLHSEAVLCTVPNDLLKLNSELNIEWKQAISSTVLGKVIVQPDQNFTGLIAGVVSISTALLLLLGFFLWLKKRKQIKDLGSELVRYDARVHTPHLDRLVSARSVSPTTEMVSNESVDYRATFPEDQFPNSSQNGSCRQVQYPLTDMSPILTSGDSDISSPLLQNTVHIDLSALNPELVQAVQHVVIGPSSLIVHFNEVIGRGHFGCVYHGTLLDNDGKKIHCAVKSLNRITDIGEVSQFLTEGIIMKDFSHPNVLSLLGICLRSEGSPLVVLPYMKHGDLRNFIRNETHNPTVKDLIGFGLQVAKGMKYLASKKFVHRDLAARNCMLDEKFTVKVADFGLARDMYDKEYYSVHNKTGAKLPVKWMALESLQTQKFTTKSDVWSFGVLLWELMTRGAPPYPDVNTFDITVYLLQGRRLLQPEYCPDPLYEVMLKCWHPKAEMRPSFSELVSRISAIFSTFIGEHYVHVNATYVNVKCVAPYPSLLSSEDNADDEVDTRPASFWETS

Legend:
[1] = target: Human cMET (recombinant, soluble monomeric) (human) (UniProt P08581); test: Octet biolayer interferometry, antigen capture format: His-tagged human cMET on NI-NTA sensors, then antibody (66 nM), then human EGFR (500 nM)
[2] = target: Human cMET (recombinant, soluble monomeric) (human) (UniProt P08581); test: ELISA: antigen coated at 1 ug/mL, antibody dilution series, goat anti-human Fab-HRP, A450; panel Human cMET
[3] = target: Cynomolgus monkey cMET (recombinant, soluble monomeric) (cynomolgus monkey); test: ELISA, antigen coated at 1 µg/mL, antibody 10 to 0.002 µg/mL, anti-human Fab HRP
[4] = target: Human cMET (recombinant, soluble monomeric) (human) (UniProt P08581); test: as above
[5] = target: Cynomolgus monkey cMET (recombinant, soluble monomeric) (cynomolgus monkey); test: ELISA, FIG. 3A legend
[6] = target: Human cMET (recombinant, soluble monomeric) (human) (UniProt P08581); test: ELISA, FIG. 3A legend
[7] = target: Human cMET (recombinant, soluble monomeric) (human) (UniProt P08581); test: BLI, Octet384, His-tagged cMET on Ni-NTA sensors, antibody 66 nM
[8] = target: Cynomolgus monkey cMET (recombinant, soluble monomeric) (cynomolgus monkey); test: ELISA: antigen coated at 1 ug/mL, antibody dilution series, goat anti-human Fab-HRP, A450; panel Cynomolgus cMET

Measured: binding

B1: B09-57 IgG (antibody, V domains shown)
VH: QVQLVQSGAEVKKPGASVKVSCKASGYTFTDYYIHWVRQATGQGLEWMGWMNPNSGNTGYAQKFQGRVTMTRDTSISTAYMELSSLRSEDTAVYYCARGQGYTHSWGQGTMVTVSS
VL: DIQMTQSPSTLSASVGDRVTITCRASEGIYHWLAWYQQKPGKAPKLLIYKASSLASGVPSRFSGSGSGTEFTLTISSLQPDDFATYYCQQYSNYPPTFGGGTKLEIK
notes: also called B09-GL; cMET IgG B09
binds: [1] | [2] | [3] | [4] | [5] | [6] | [7] | [8]
